The values that follow come from PubChem BioAssay (NCATS).

The list shows a part of the results. Further columns of the screen follow, without active or inactive calls. Compounds called inactive in the main read-out are mostly missing here. Potencies come from curve fits of mixed quality, noted in brackets.

This assay can be described thus: qHTS for identification of novel therapeutic agents for treatment of microphthalmiaassociated transcription factor (MiT) renal cell carcinoma (RCC) (AID 1963991). The note with it: CellTiter-Glo, 48 h; for z-score: stronger effect = lower value. The essentials: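 Curves over 11 concentrations were fitted to CellTiter-Glo luminescence, scaled between empty wells (0%) and DMSO (100%) viability. Cells were UOK109, UOK124 and UOK145 TFE3-fusion RCC lines at 500/well, exposed 48 hours at 37 C.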
On the technique in general: In qHTS, concentration-response curves come from the screen itself.

Where [1] appears, read: TFE3-RCC UOK109 viability, measured here: UOK109 Z-AUC.
Where [2] appears, read: TFE3-RCC viability, measured here: UOK124 Z-AUC.
The mark [3] stands for this setting: TFE3-RCC viability, measured here: UOK124 cell viability.
[4] abbreviates: TFE3-RCC viability, measured here: UOK145 Z-AUC.
[5] abbreviates: TFE3-RCC viability, measured here: UOK145 cell viability.

As to `CN(C)CCCN=c1c2ccccc2n(C)c2[nH]c(=O)n(C)c(=O)c12`, the z-score by setting is: under setting [1], -0.502; under setting [2], -0.105; under setting [4], -1.38. The AC50 (in general, the concentration at which the activity in the assay is half-maximal) was 9.35 µM [falling, full curve] under setting [3] and 5.9 µM [falling, partial curve] under setting [5].

Turning to `C=C1[C@H](n2cnc3c(=O)[nH]c(N)nc32)C[C@H](O)[C@H]1CO`, the z-score came out at 0.94 under setting [1], 2.29 under setting [2] and 0.945 under setting [4]. For the same molecule, under setting [5], the AC50 was 23.5 µM [falling, partial curve].

For the molecule `Cc1ccc2c(c1)C(=O)[C@]1(O)CCN(c3ccccc3)C1=N2`, the z-score runs as follows: under setting [1], 1.09; under setting [2], 1.14; under setting [4], -0.222. Also, the AC50 under setting [3] was 23.5 µM [falling, single point].

On to `COc1nccc(-c2c(-c3ccc(F)cc3)ncn2C2CCNCC2)n1`, for which the z-score under setting [1] was -0.0714, the z-score under setting [2] was determined as 0.243 and the z-score under setting [4] is -0.0923. The AC50 is, setting by setting: under setting [3], 4.69 µM [falling, partial curve, poor fit]; under setting [5], 16.6 µM [falling, partial curve].

Turning to `CCOc1ccccc1N=Nc1c(C)[nH]n(-c2nc(-c3ccccc3)cs2)c1=O`, the z-score runs as follows: under setting [1], -0.114; under setting [2], -0.0066; under setting [4], 1.07. Besides, the half-maximal activity concentration (AC50) under setting [5] is 7.43 µM [falling, partial curve, poor fit].

Turning to `CON=C(C(=O)N[C@@H]1C(=O)N2C(C(=O)OCOC(=O)C(C)(C)C)=C(C=Cc3scnc3C)CS[C@H]12)c1csc(N)n1`, the z-score by setting is: under setting [1], 1.16; under setting [2], 0.677; under setting [4], -0.0549. Moreover, the AC50 under setting [5] is 0.0235 µM [rising, full curve].

In the case of `NC(=O)c1nnn(Cc2cc(Cl)c(C(=O)c3ccc(Cl)cc3)c(Cl)c2)c1N`, the z-score turned out to be 0.669 under setting [1], 0.588 under setting [2] and 0.514 under setting [4]. Moreover, the AC50 under setting [3] was 20.9 µM [falling, partial curve] and the concentration at half-maximal activity (AC50) under setting [5] was 29.6 µM [falling, single point].

Take `CCCNC(=O)[C@H]1O[C@H]1C(=O)N[C@H](C(=O)N1CCC[C@@H]1C(=O)OC)C(C)CC` (stereo not given in full): the z-score is -3.27 under setting [1], 0.691 under setting [2] and 0.872 under setting [4]. In addition, the concentration at half-maximal activity (AC50) was 11.8 µM [falling, partial curve] under setting [3] and 14.8 µM [falling, partial curve] under setting [5].

In the case of `COc1cc(N2CCN(C)CC2)ccc1Nc1nc(N)c(C(=O)c2c(Cl)cccc2Cl)s1`, the z-score is 0.101 under setting [1], -0.307 under setting [2] and 1.01 under setting [4]. In addition, under setting [3], the AC50 was 20.9 µM [falling, partial curve].

For the molecule `C[C@]12CCC3c4ccc(O)cc4CCC3C1CCC2=O` (stereo not given in full), the z-score under setting [1] came out at 0.0281, the z-score under setting [2] is -0.0142 and the z-score under setting [4] amounted to 1.06. For the same molecule, the AC50 under setting [5] was 0.00935 µM [falling, full curve, poor fit].

On to `CC(C)N(CCCNC(=O)Nc1ccc(C(C)(C)C)cc1)C[C@H]1O[C@@H](n2cc(Br)c3c(N)ncnc32)[C@H](O)[C@H]1O`, for which the z-score runs as follows: under setting [1], 0.215; under setting [2], -0.135; under setting [4], -0.0539. Moreover, the AC50 by setting is: under setting [3], 16.6 µM [falling, partial curve]; under setting [5], 18.7 µM [falling, partial curve].

Turning to `O=C1CCCC2=C1C(c1[nH]ncc1Cl)N=C(Nc1nc3ccccc3o1)N2` (stereo not given), the z-score runs as follows: under setting [1], 0.814; under setting [2], 0.902; under setting [4], 0.692. Also, the AC50 under setting [3] is 18.7 µM [falling, partial curve, poor fit].

Molecule `CCCCc1nc2cc(C=CC(=O)NO)ccc2n1CCN(CC)CC` displayed a z-score under setting [1] of -1.08, a z-score under setting [2] of -1.42 and a z-score under setting [4] of -0.619. For the same molecule, the AC50 under setting [3] is 3.32 µM [falling, partial curve] and the AC50 under setting [5] is 5.26 µM [falling, full curve].

Consider `CC(=O)Nc1sc2c(c1-c1nc3ccccc3s1)CNC2`, for which the z-score by setting is: under setting [1], -0.0333; under setting [2], 0.14; under setting [4], -0.753. Further, the AC50 runs as follows: under setting [3], 29.6 µM [falling, partial curve, poor fit]; under setting [5], 14.8 µM [falling, partial curve].

Consider `COc1cc(NC(=O)c2ccc(-c3ccc(Cl)cc3)o2)cc(OC)c1`, for which the z-score was -0.462 under setting [1], 0.191 under setting [2] and -0.366 under setting [4]. Also, under setting [5], the AC50 was 8.33 µM [falling, full curve].

Turning to `CC(C)(C)NC(=O)[C@H]1CN(Cc2cccnc2)CCN1C[C@@H](O)C[C@@H](Cc1ccccc1)C(=O)N[C@H]1c2ccccc2C[C@H]1O`, the z-score was -0.000663 under setting [1], 0.421 under setting [2] and -3.78 under setting [4]. Also, the AC50 is, setting by setting: under setting [3], 26.4 µM [falling, partial curve]; under setting [5], 0.743 µM [falling, full curve].

Regarding `CS(=O)(=O)c1ccc(C(=O)Nc2ccc(Cl)c(-c3ccccn3)c2)c(Cl)c1`, the z-score runs as follows: under setting [1], -0.371; under setting [2], -0.0362; under setting [4], -0.27. Moreover, the AC50 under setting [5] was 37.2 µM [falling, single point].

Take `CC[C@]1(O)C[C@@H]2CN(CCc3c([nH]c4ccccc34)[C@@](C(=O)OC)(c3cc4c(cc3OC)N(C=O)[C@@H]3C45CCN4CC=C[C@](CC)([C@H]45)[C@@H](OC(C)=O)[C@]3(O)C(=O)OC)C2)C1` (stereo not given in full): the z-score is -0.0773 under setting [1], 0.686 under setting [2] and -0.876 under setting [4]. Moreover, the AC50 under setting [3] is 23.5 µM [falling, single point].

On to `CC[C@H](C)n1cc(C)c2c(C(=O)NCc3c(C)cc(C)[nH]c3=O)cc(-c3ccc(N4CCNCC4)nc3)cc21`, for which the z-score under setting [1] worked out at 0.646, the z-score under setting [2] came out at 0.231 and the z-score under setting [4] was 0.11. Also, the AC50 reads like this: under setting [3], 33.2 µM [falling, single point]; under setting [5], 23.5 µM [falling, partial curve].
